# Small-molecule microarray binding calls

Calls as published in the ROBIN set (doi:10.1002/anie.202211358).

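Compounds were printed on reactive glass slides in duplicate spots, a dye-labelled oligonucleotide was laid over them, and the fluorescence left after washing was read. The data file lists only calls. An earlier report of the laboratory on the PreQ1, TPP and SAM-II riboswitches (doi:10.1038/s41467-019-09493-3) used 1 µM RNA for 2 h and required a mean Z-score above 3 (spot signal-to-noise against the whole library), a score well above that on a control array, and duplicate spots agreeing (coefficient of variation under 100); it then also set aside compounds that hit other targets, which this list keeps. The cut-offs behind this list may differ. A missing hit is not proof of no binding, and a hit is not a measured affinity.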 A compound is marked hit if it was called a hit and no hit if it was screened but was not. Compounds were drawn at random from those tested, without regard to their results. A target missing from an entry has no call listed here.

Targets (5′ to 3′):
T1: TPP riboswitch RNA three-way junction, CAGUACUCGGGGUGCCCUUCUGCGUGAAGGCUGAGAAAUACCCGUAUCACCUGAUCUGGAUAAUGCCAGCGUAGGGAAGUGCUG. About 160 hits among about 24,000 compounds.
T2: PreQ1 riboswitch RNA pseudoknot, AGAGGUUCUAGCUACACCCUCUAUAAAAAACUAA. From B. subtilis. About 170 hits among about 24,000 compounds.
T3: SAM-II riboswitch RNA pseudoknot, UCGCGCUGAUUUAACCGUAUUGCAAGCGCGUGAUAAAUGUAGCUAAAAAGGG. About 200 hits among about 21,000 compounds.

For COc1ccc(-c2ccc(CNC(C)(C)C)o2)cc1Cl the calls were T1: no hit; T2: no hit.
For CC(C)Nc1c2c(c(C#N)c3nc4ccccc4n13)CCCC2 the calls were T1: no hit; T2: no hit.
For CC1CCN(c2cc(N3CCN(C)CC3)ccc2NC(=O)c2cc(C#N)c[nH]2)CC1 the calls were T1: no hit; T2: no hit; T3: no hit.
For Cc1cc2nc3ccc(N(C)C)cc3[s+]c2cc1N.[Cl-] the calls were T1: no hit; T2: no hit; T3: no hit.
For COc1cccc(NC(=O)c2sc3nc(N4CCCC4)c4c(c3c2N)CCCC4)c1 the calls were T1: no hit; T2: no hit.
For COc1ccc(C(=O)Oc2ccc[nH]c2=O)cc1 the calls were T1: no hit; T2: no hit; T3: no hit.
For Cc1nc(CNC(=O)[C@@H]2C[C@@H](N)CN2)nc2c1CCCC2 the calls were T1: no hit; T2: no hit; T3: no hit.
For Cn1c(=O)c2c(nc(CN3CCN(CCO)CC3)n2CCN2CCOCC2)n(C)c1=O the calls were T1: no hit; T2: no hit; T3: no hit.
For OC(Cc1ccccc1)C1CCN(c2ccc(Cn3ccnc3)cn2)CC1 (centres unmarked) the calls were T1: no hit; T2: no hit; T3: no hit.
For CN(C)C[C@@H]1CN(C(=O)c2cccc(-c3ccc(F)cc3)c2)C[C@@H]1CO the calls were T1: no hit; T2: no hit; T3: no hit.
For C=CCOc1ccc(C2C(C#N)=C(N)OC(C)=C2C(C)=O)cc1 (centres unmarked) the calls were T1: no hit; T2: no hit; T3: no hit.
For OCCN1C[C@H](O)[C@@H](O)[C@H](O)[C@H]1CO the calls were T1: no hit; T2: no hit; T3: no hit.
For Nc1nnc(SCc2nc3ccccc3n2Cc2ccccc2)s1 the calls were T1: no hit; T2: no hit; T3: no hit.
For CCOC(=O)N1CCC(Nc2c(N3CCCC3)c(=O)c2=O)CC1 the calls were T1: no hit; T2: no hit.
For CCCc1cncnc1N1CCC(NC2CCN(C(=O)OCC)CC2)CC1 the calls were T1: no hit; T2: no hit; T3: no hit.
For CCOC(=O)c1cnc2ccc(Br)cc2c1NCCCN1CCOCC1 the calls were T1: no hit; T2: no hit; T3: no hit.
For CC(=O)N1CCN(c2ccc(OCc3nn(C)c(C)c3-c3cccc4c(CCCOc5cc(C)c(Cl)c(C)c5)c(C(=O)O)n(Cc5cccnc5)c34)cc2)CC1 the calls were T1: no hit; T2: no hit; T3: no hit.
For Nc1ccc(SCc2nnc(-c3ccccc3)o2)cc1 the calls were T1: no hit; T2: no hit; T3: no hit.
For CCNc1nc(-c2ccc(Br)cc2)cs1 the calls were T1: no hit; T2: no hit; T3: no hit.
For COc1ccc(-c2cc3ccccc3[nH]2)cc1 the calls were T1: no hit; T2: no hit; T3: no hit.
For Cn1c(=O)c2c(nc(CN3CCN(C(=O)c4ccco4)CC3)n2CCCO)n(C)c1=O the calls were T1: no hit; T2: no hit; T3: no hit.
For O=C(Nc1ccc(-c2nc3ccccc3[nH]2)cc1)C1CCN(C(=O)CO)CC1 the calls were T1: no hit; T2: no hit; T3: no hit.
For COc1ccccc1Nc1nc(-c2ccccc2O)nc2ccccc12 the calls were T1: no hit; T2: no hit; T3: no hit.
For N#Cc1c(N)c(C(=O)c2ccc(Cl)cc2)n2c1CCC2 the calls were T1: no hit; T2: no hit; T3: no hit.
For COc1ccccc1CNc1ccc2c(c1)ncn2-c1ccccc1OC the calls were T1: no hit; T2: no hit; T3: no hit.
For O=C1OCCCN1CCNC1CCN(c2ncnc3[nH]cnc23)CC1 the calls were T1: no hit; T2: no hit; T3: no hit.